At least one structure is not confirmed: it was looked up by name or label, or the drawing left a doubt.
Legend:
AP-1 = assay: AP1-dependent luciferase reporter pCollagenase-luc in PMA-treated A549 cells; assay type: cell-based; details: A549, 10 μM
Experimental: (§1) FIG. 2: A549 cells with the stably integrated recombinant reporter gene p(GRE)2-50-luc (A) were pre-incubated with respective solvents, the selective Glucocorticoid Receptor modulator CpdA (10 μM), 7a, (1 μM or 10 μM), 7b (1 μM or 10 μM), 13a (1 μM or 10 μM) for 1 h after which the synthetic glucocorticoid dexamethasone (DEX,1 μM) was added, where indicated, for 5 h. A549 cells with the stably integrated recombinant reporter gene p(IL6kB)350hu.IL6P-luc (B) or Collagenase-luc (C) were pre-incubated with respective solvents, DEX (1 μM), CpdA (10 μM), 7a, (1 μM or 10 μM), 7b (1 μM or 10 μM), 13a (1 μM or 10 μM) for 1 h after which TNF (2000 units/ml) or PMA (20 nM) were added, where indicated, for 5 h. Cell lysates were assayed for luciferase activities. Promoter activities are expressed as relative induction factor calculated as percentage of maximal DEX (A), TNF (B) or PMA (C) responses. […] Assays were performed in triplicate, and results are averages of at least three independent experiments and shown ±S.D. ****p<0.0001; ***p<0.001; **p<0.01; *p<0.05. Statistical significance was determined on the averaged results, and analysis performed using one-way ANOVA tests followed by a Tukey multiple comparison post test. […]

[1] = system: acetylation of α-tubulin in Neuro-2a cells; assay: Acetylation level of α-tubulin in Neuro-2a cells (Western blot); assay type: cell-based, Mouse; details: in words
Experimental: FIG. 1: Potency of inhibiting HDAC6 by compounds 7a, 7b and 13a in Neuro-2a cells. A. Cells were treated overnight with different concentrations of the HDAC6 inhibitors and blotted of the acetylation of α-tubulin.
Mouse neuroblastoma (Neuro-2a) cells were grown in a 1:1 mix of D-MEM (Dulbecco's Modified Eagle Medium) and F12 medium supplemented with glutamax (Invitrogen), 100 μg/ml streptomycin, 100 U/ml penicillin (Invitrogen), 10% fetal calf serum (Greiner Bio-one), 1% non-essential amino acids (Invitrogen) and 1.6% NaHCO3 (Invitrogen) at 37° C. and 7.5% CO2. To split the cells, cells were washed with Versene (Invitrogen) and dissociated with 0.05% Trypsine-EDTA (Invitrogen).
For sodium dodecyl sulfate-polyacrylamide gel electrophoresis (SDS-PAGE) analysis, transfected cells were collected using the EpiQuik Total Histone Extraction Kit (EpiGentek) according to manufacturer's instructions. Protein concentrations were determined using microBCA kit (Thermo Fisher Scientific Inc., Pittsburgh, Pa., USA) according to manufacturer's instructions. […] ImageQuant TL version 7.0-software was used to quantify the blots.
Neuro-2a cells were treated overnight with different concentrations of the HDAC6 inhibitors and the effect on the acetylation level of α-tubulin was determined using Western blots (FIG. 1).

NF-κβ = assay: NF-κβ-dependent luciferase reporter p(IL6kB)350hu.IL6P-luc in TNF-activated A549 cells; assay type: cell-based; details: TNF-activated A549, 1 μM or 10 μM
Experimental: as §1

[2] = system: glucocorticoid receptor, GR; assay: GRE-dependent luciferase reporter p(GRE)2-50-luc in A549 cells; assay type: cell-based; details: A549, 1 μM or 10 μM, 1 h pre-incubation then DEX 1 μM 5 h

For `O=C(NO)c1ccc(NCc2csc3cc(Br)ccc23)cc1` [Compound 13a, 6-bromo-3-[(4-hydroxycarbamoylphenyl)aminomethyl]-benzothiophene], the “AP1-dependent promoter activity as compared to solvent control (DMSO)” value (AP-1) was “clearly induced the AP1-dependent promoter activity”, the “effect on the acetylation level of α-tubulin compared with Tubastatin A” value [1] was “same effect on the acetylation level of α-tubulin as Tubastatin A” and the “block of the activity of NF-κβ” value (NF-κβ) was “not able to block the activity of NF-κβ”. The “DEX-activated GR-driven gene expression (transcriptional activity of GR)” value [2] was “leaves the transcriptional activity of GR unhampered”.

— patent publication US9993459B2, “Selective HDAC6 inhibitors and uses thereof” (Universiteit Gent, priority 2015, dated 2018)
